Test results published in PubChem BioAssay AID1487 (National Center for Advancing Translational Sciences (NCATS), 2009).
The other results are listed elsewhere or left out. Further columns of the screen follow, without active or inactive calls. The list favours compounds with an active or inconclusive main result. The note in brackets gives the kind of curve behind each potency; many fits are weak.

Test: qHTS Assay for Modulators of Lamin A Splicing
Settings: HeLa LMNA splicing GFP/RFP minigene ratio, 48 h
In short: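 Read-out is the ratio of GFP to DsRed2 object intensity, acquired by 488 nm laser-scanning cytometry on HeLa lamin A-EGFP minigene reporter cells. Compound incubation 48 hrs at 37 °C in Opti-MEM with 2% FBS; DMSO 0.5% final.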

[1] = measured here: GFP splicing reporter channel
[2] = measured here: RFP viability control channel

Row | Compound | AC50 [1] | AC50 [2]
1 | CC1=C(c2ccc(C(C)C)cc2)S(=O)(=O)N=C1N1CCC(C(=O)NCc2ccco2)CC1 | 35.5 µM [falling, single point] | 22.4 µM [falling, single point]
2 | Cc1ccc(-n2c(CNc3ccc(F)cc3)nnc2SCC(N)=O)cc1 | – | 1.12 µM [falling, partial curve, poor fit]
3 | COc1ccc(-n2ncc3c(N4CCN(Cc5ccccc5)CC4)ncnc32)cc1 | – | 2 µM [falling, partial curve]
4 | CN1CCN(C(=O)CCN2C(=O)/C(=C/c3ccccc3Cl)SC2=S)CC1 | 17.8 µM [falling, partial curve, poor fit] | 0.1 µM [falling, full curve, poor fit]
5 | CC(C)CNC(=O)CSc1nnc(-c2ccc(Cl)cc2)n1N | – | 1.78 µM [falling, partial curve, poor fit]
6 | COc1ccc(CCNc2ncnc3c2c(-c2ccccc2)cn3-c2cccc(Cl)c2)cc1OC | – | 0.0141 µM [rising, full curve, poor fit]
7 | Cc1cc(Nc2ccccc2)n(-c2nc3ccccc3[nH]2)n1 | – | 14.1 µM [rising, single point]
8 | CN(C)CCNC(=O)c1ccc2nc(Cc3ccccc3)oc2c1 | – | 0.501 µM [falling, full curve, poor fit]
9 | COCCN1C(=O)N[C@@H](c2ccc(Br)cc2)C(C(=O)OC)=C1C | – | 20 µM [rising, single point]
10 | Cc1ccc(NC(=O)c2ccc(CN3CCc4ccccc4C3)cc2)cc1 | 0.0316 µM [rising, full curve, poor fit] | 7.94 µM [rising, partial curve]
11 | COc1ccc(C2C(C(=O)OC3CCCCC3)=C(C)Nc3nnnn32)c(OC)c1OC (stereo not drawn) | 10 µM [rising, single point] | –
12 | COc1ccc(C(=O)NCC(c2ccc(N(C)C)cc2)N2CCOCC2)cc1 (stereo not drawn) | – | 12.6 µM [rising, partial curve]
13 | CCC(C)n1c(SCc2ccc(F)cc2Cl)nc2ccsc2c1=O (stereo not drawn) | – | 11.2 µM [rising, partial curve, poor fit]
14 | O=C(Cn1ccc2ccccc2c1=O)N1CCN(Cc2ccc3c(c2)OCO3)CC1 | 4.47 µM [rising, partial curve] | 11.2 µM [rising, partial curve]
15 | COc1cccc(/C=N/n2c(C)nc3ccccc3c2=O)c1O | – | 35.5 µM [rising, single point]
16 | CCOC(=O)N1CCN(C(=O)CSc2ccc(-c3ccccc3OC)nn2)CC1 | – | 0.0282 µM [falling, full curve, poor fit]
17 | COc1ccccc1N1CCN(c2ncc3c(n2)CCN(Cc2ccc(C)s2)C3)CC1 | 3.98 µM [rising, single point] | –
18 | N=c1c2c(n(Cc3ccc(Br)cc3)c3c1CCC3)CCCC2 | 2 µM [rising, partial curve, poor fit] | 2.82 µM [rising, full curve]
19 | Cc1ccc(C(=O)Nc2nnc(-c3ccco3)o2)cc1 | – | 35.5 µM [rising, single point]

Quoted at random: five entries already listed.
Row | Compound | AC50 [1] | AC50 [2]
3 | COc1ccc(-n2ncc3c(N4CCN(Cc5ccccc5)CC4)ncnc32)cc1 | – | 2 µM [falling, partial curve]
17 | COc1ccccc1N1CCN(c2ncc3c(n2)CCN(Cc2ccc(C)s2)C3)CC1 | 3.98 µM [rising, single point] | –
16 | CCOC(=O)N1CCN(C(=O)CSc2ccc(-c3ccccc3OC)nn2)CC1 | – | 0.0282 µM [falling, full curve, poor fit]
5 | CC(C)CNC(=O)CSc1nnc(-c2ccc(Cl)cc2)n1N | – | 1.78 µM [falling, partial curve, poor fit]
2 | Cc1ccc(-n2c(CNc3ccc(F)cc3)nnc2SCC(N)=O)cc1 | – | 1.12 µM [falling, partial curve, poor fit]

The list goes on:

Row | Compound | AC50 [1] | AC50 [2]
20 | CCCCCOc1ccc(OC(=O)c2ccncc2)cc1 | 12.6 µM [falling, partial curve] | –
21 | Cn1c(SCC(=O)N/N=C/c2ccco2)nc2ccccc21 | 0.0891 µM [rising, full curve, poor fit] | –
22 | Cc1ccc(NC(=O)CN(C)C(=O)COc2ccc(C(=O)c3ccc(F)cc3)cc2)cc1 | 35.5 µM [rising, single point] | 35.5 µM [rising, single point]
23 | COc1ccc2[nH]c3c(=O)n(Cc4ccc(C(=O)NCC5CCCO5)cc4)c(=S)[nH]c3c2c1 (stereo not drawn) | 0.316 µM [falling, full curve, poor fit] | 0.501 µM [falling, full curve, poor fit]
24 | C/C(=N\NS(=O)(=O)c1ccccc1)c1ccc2c(c1)OCO2 | – | 0.00891 µM [falling, full curve, poor fit]
25 | CCc1cccc(NC(=O)Cn2c(-c3ccc(F)cc3)cc(C(C)=O)c2C)c1 | – | 14.1 µM [falling, single point]
26 | Cc1ccccc1Nc1nc(N)nc(CN2CCN(C(=O)c3ccccc3)CC2)n1 | – | 20 µM [falling, partial curve]
27 | CC(C)(C)NCC(O)c1cc(O)cc(O)c1 (stereo not drawn) | – | 0.158 µM [rising, full curve, poor fit]
28 | CC(C)(C)c1csc(NC(=O)c2ccc(Cl)s2)n1 | 11.2 µM [rising, single point] | 17.8 µM [rising, partial curve]
29 | Nc1nc2nc(-c3cccs3)cc(C(F)(F)F)n2n1 | 0.501 µM [falling, full curve, poor fit] | –
30 | Cc1ccccc1N/N=C/c1ccc(C#N)cc1 | – | 35.5 µM [falling, single point]
31 | COC(=O)C12CCC3(SCCS3)C(C(=O)OC)(CCC13SCCS3)C2 | – | 3.55 µM [rising, full curve]
32 | COC(=O)c1ccccc1NS(=O)(=O)c1ccc(Cl)nc1 | 0.562 µM [falling, full curve] | 4.47 µM [falling, partial curve]
33 | CCc1cccc(C)c1NC(=O)CSc1nnc(-c2cc3cc(Br)ccc3o2)n1CC | – | 14.1 µM [rising, single point]
34 | COc1ccc2c(c1)C1=NN(/C(C)=C/C(C)=O)C(c3ccc(F)cc3)C1CC2 (stereo not drawn) | – | 11.2 µM [rising, partial curve]
35 | CC(C)(C)c1cc(NC(=O)c2cccc(S(=O)(=O)N3CCOCC3)c2)no1 | – | 35.5 µM [rising, single point]
36 | CSc1ccc(NC(=O)/C=C/C(=O)O)cc1 | – | 35.5 µM [falling, single point]
37 | CC(NC(=O)c1ccco1)c1cccc2ccccc12 (stereo not drawn) | – | 35.5 µM [rising, single point]
38 | O=S(=O)(Cc1ccccc1)NCC1CCCN(Cc2cccc3nonc23)C1 (stereo not drawn) | – | 0.0355 µM [falling, full curve, poor fit]

Row | Compound | AC50 [1] | AC50 [2]
39 | CC(NC(=O)NC12CC3CC(CC(C3)C1)C2)c1ccc2c(c1)OCO2 (stereo not drawn) | – | 5.62 µM [falling, single point]
40 | Cc1cc(C(=O)N/N=C/c2cc(Br)ccc2OC(=O)c2ccc(Br)cc2)n[nH]1 | – | 20 µM [rising, partial curve, poor fit]
41 | Cc1c(-c2ccn[nH]2)cc(NC(=O)c2ccc(Cl)cc2)c(=O)n1N | 2.51 µM [falling, full curve] | 1.41 µM [falling, full curve]
42 | Cc1nc(C)n(CC(O)COc2ccc3cc(Br)ccc3c2)n1 (stereo not drawn) | – | 20 µM [rising, single point]
43 | Cn1ncc(Cl)c1C(=O)NCc1ccc(Cl)cc1 | 10 µM [rising, partial curve] | 12.6 µM [rising, partial curve]
44 | CC1(C)CC2CC(C)(CN2c2ncnc3ccc(Br)cc23)C1 (stereo not drawn) | 11.2 µM [rising, single point] | 11.2 µM [rising, single point]
45 | CCOCCCn1c(SCC(=O)Nc2ccc(F)cc2)nc2c(sc3ccccc32)c1=O | 11.2 µM [falling, partial curve, poor fit] | 11.2 µM [falling, partial curve]
46 | CCC(C(=O)Nc1cc(-c2cn3cccnc3n2)ccc1C)c1ccccc1 (stereo not drawn) | 3.55 µM [rising, full curve] | –
47 | Cc1cc(C)cc(NC(=O)CN2C(=O)c3ccccc3Sc3ccc(C(=O)N4CCCC4)cc32)c1 | – | 0.178 µM [falling, full curve, poor fit]
48 | COc1ccc(CCn2c(-c3ccco3)nc3ccccc3c2=O)cc1OC | 4.47 µM [rising, full curve, poor fit] | 8.91 µM [rising, partial curve]
49 | CC(=O)OCC(=O)[C@@]1(O)CCC2C3C[C@H](C)C4=CC(=O)C=CC4(C)C3C(O)CC21C (stereo partly drawn) | 17.8 µM [rising, partial curve, poor fit] | 0.891 µM [falling, full curve, poor fit]
50 | CCOC(=O)c1c(NC(=O)COC(=O)C2CC2C)sc(C)c1C (stereo not drawn) | 0.891 µM [rising, full curve, poor fit] | –
51 | O=C(CN1C(=O)CCc2cc(Br)ccc21)Nc1ccc(OC(F)(F)F)cc1 | 0.0708 µM [falling, full curve, poor fit] | –
52 | Cc1ccc(-n2nnnc2SCn2nnc3ccccc3c2=O)c(C)c1 | – | 2.82 µM [rising, full curve]
53 | O=C(NC(=S)N1CCN(c2ccc(Cl)cc2[N+](=O)[O-])CC1)c1ccco1 | – | 14.1 µM [rising, single point]
54 | CNc1ccc(Br)cc(C(=O)/C=C/c2cccc(Cl)c2Cl)c1=O | – | 15.8 µM [falling, single point]
55 | COC(=O)[C@@H](NC(=O)c1ccc(OC2CCN(Cc3ccccn3)CC2)cc1)C(C)C | – | 3.98 µM [falling, full curve, poor fit]
56 | COc1ccccc1N1CCN(S(=O)(=O)c2cc(C(=O)Nc3ccc(Oc4ccccc4)cc3)ccc2F)CC1 | 0.562 µM [falling, full curve] | 0.355 µM [falling, full curve, poor fit]
57 | Cn1cc(/C=N\NC(=O)C2COc3ccccc3O2)c2ccccc21 (stereo not drawn) | – | 2 µM [rising, full curve]
